In the supplement of paper PMC10849652:
The other results are listed elsewhere or left out.

Protein sequences, listed by entry. Tags and fused reporters are not part of them. Lines headed by an entry give the natural chain unless they say otherwise; changes in a name come on top.
UniProt Q14680: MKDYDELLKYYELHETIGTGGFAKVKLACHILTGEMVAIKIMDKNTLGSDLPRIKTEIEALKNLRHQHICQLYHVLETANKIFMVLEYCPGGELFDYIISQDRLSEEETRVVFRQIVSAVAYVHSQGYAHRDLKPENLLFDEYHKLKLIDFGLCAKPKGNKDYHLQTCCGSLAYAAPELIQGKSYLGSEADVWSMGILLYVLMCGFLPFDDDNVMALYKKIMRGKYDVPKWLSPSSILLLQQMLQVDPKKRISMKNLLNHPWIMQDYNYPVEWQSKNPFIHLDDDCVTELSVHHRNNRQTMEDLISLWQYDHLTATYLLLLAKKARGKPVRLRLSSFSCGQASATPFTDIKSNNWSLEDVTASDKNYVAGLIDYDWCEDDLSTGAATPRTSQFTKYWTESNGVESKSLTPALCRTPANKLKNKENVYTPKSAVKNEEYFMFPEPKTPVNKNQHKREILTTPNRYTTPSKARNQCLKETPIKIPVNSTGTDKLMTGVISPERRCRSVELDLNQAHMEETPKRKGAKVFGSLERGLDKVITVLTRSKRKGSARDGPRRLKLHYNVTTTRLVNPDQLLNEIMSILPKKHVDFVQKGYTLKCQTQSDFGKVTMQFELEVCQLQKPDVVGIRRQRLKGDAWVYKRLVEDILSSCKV
UniProt Q96AQ8: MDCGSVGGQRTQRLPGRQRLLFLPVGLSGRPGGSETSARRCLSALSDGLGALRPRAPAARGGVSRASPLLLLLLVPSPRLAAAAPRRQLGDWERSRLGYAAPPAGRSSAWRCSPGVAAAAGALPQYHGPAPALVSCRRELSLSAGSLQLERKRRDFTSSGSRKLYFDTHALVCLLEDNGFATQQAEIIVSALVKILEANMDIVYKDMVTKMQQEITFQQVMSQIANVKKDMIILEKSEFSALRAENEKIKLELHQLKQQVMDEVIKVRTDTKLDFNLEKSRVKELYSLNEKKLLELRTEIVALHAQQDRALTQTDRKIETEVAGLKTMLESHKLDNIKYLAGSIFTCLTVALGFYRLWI
UniProt Q9NPJ6: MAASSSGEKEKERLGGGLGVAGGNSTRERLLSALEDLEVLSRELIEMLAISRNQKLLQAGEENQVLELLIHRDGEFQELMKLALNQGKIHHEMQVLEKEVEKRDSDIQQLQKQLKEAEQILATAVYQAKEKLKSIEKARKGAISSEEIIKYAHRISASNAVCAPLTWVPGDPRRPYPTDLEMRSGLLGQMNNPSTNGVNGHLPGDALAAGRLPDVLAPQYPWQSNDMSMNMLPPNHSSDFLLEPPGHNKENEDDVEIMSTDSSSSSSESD
UniProt Q8NHS3: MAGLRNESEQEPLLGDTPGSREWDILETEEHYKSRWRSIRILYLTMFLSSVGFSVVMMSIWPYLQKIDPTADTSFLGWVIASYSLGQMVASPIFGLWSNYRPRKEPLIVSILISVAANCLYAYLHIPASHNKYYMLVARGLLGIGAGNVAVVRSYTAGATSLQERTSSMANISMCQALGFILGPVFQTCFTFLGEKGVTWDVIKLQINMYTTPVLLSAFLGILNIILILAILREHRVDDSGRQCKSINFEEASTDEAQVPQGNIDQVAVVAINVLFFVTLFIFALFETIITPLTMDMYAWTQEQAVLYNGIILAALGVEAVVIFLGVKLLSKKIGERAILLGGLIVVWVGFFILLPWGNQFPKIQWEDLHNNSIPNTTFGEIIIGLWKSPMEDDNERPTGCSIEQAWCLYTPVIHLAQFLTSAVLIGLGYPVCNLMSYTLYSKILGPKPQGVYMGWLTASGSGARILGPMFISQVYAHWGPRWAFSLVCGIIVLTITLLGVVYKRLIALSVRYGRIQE
UniProt Q6ZSS7: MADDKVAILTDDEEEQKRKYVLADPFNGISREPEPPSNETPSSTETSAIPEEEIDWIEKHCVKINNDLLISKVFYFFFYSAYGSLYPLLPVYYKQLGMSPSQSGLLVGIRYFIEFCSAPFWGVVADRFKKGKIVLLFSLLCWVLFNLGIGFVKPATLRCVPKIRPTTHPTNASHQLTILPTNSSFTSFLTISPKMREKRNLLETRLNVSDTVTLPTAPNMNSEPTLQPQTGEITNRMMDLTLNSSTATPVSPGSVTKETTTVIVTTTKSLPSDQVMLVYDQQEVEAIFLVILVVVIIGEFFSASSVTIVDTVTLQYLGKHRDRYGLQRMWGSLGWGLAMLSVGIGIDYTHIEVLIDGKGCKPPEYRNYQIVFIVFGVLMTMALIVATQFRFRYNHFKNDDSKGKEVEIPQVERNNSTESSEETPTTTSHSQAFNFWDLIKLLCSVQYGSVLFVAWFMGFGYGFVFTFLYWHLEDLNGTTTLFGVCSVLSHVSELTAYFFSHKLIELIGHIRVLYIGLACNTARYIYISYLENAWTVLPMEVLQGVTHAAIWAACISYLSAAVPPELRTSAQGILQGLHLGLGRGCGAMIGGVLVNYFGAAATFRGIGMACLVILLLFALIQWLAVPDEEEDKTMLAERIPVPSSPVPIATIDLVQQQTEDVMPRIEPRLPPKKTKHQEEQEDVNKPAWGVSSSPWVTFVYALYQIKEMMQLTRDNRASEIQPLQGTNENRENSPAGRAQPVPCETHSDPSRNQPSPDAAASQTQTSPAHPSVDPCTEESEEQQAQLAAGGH
UniProt Q9H8H3: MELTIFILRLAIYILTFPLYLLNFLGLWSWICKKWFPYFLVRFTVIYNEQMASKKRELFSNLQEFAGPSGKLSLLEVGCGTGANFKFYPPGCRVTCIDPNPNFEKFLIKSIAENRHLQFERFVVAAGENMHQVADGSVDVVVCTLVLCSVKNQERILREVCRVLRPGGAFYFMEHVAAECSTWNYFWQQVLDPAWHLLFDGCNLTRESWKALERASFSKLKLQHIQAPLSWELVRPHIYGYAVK
UniProt Q8NI22: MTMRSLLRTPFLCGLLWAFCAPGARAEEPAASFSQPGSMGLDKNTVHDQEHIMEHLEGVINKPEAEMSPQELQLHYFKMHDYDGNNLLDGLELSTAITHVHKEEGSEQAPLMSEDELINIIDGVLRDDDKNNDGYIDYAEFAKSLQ
UniProt Q8NE86: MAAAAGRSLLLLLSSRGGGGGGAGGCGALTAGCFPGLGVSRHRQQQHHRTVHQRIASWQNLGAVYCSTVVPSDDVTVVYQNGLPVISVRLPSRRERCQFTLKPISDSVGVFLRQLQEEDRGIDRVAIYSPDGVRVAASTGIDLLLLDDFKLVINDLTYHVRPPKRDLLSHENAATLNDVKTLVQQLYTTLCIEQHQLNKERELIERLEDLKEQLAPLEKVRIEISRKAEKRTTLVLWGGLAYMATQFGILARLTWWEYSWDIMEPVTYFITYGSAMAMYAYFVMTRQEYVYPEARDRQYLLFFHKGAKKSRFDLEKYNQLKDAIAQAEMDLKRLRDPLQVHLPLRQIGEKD
UniProt P26572: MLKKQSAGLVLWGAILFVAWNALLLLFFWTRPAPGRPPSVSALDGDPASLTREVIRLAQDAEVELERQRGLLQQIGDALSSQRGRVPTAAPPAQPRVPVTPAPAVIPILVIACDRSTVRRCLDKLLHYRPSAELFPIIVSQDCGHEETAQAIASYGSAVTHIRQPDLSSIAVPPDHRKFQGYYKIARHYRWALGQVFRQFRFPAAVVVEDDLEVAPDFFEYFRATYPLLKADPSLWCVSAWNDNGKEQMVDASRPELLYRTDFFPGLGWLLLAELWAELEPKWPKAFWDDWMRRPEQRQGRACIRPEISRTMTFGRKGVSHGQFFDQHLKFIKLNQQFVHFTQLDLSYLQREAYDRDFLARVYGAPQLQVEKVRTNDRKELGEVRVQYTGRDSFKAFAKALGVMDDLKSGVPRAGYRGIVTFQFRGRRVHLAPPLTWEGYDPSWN
UniProt Q86YT6, whole entry, looked up: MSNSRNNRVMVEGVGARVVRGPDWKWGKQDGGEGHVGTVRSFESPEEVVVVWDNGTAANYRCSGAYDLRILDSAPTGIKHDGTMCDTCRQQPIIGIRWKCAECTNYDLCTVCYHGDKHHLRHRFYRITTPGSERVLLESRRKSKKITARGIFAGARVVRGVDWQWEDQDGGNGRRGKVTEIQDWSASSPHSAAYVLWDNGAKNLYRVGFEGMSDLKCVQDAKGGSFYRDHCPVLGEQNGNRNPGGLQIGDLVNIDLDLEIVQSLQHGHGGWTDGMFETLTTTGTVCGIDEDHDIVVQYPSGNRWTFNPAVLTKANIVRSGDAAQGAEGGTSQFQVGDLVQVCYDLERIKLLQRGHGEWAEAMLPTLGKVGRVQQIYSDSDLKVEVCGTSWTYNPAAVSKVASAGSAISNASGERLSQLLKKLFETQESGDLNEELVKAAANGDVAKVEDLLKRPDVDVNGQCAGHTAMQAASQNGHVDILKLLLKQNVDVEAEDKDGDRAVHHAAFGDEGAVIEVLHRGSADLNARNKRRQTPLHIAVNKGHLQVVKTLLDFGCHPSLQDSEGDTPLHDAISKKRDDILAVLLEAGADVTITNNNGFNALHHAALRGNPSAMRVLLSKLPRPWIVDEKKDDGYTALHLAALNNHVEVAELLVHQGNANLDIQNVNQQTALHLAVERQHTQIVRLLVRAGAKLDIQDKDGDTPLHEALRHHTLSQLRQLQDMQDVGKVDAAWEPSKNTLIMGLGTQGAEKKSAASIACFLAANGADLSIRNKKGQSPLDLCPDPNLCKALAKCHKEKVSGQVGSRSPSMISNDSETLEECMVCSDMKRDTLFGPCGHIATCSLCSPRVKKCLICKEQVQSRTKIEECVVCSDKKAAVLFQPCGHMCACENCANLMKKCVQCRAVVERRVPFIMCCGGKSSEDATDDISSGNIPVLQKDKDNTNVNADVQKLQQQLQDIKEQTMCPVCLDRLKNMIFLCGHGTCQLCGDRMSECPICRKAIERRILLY
UniProt Q6NUT3: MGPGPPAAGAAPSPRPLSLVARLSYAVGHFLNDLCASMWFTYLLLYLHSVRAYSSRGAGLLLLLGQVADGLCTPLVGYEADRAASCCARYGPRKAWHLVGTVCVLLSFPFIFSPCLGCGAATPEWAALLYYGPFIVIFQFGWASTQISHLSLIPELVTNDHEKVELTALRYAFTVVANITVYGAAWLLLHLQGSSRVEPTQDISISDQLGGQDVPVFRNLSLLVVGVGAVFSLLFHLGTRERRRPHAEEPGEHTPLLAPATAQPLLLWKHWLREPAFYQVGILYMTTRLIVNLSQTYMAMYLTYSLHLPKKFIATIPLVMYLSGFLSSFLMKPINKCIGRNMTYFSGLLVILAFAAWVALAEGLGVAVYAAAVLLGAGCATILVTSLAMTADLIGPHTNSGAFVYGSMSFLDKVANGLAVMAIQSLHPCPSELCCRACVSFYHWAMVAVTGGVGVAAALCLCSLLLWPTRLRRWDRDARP
UniProt P55082: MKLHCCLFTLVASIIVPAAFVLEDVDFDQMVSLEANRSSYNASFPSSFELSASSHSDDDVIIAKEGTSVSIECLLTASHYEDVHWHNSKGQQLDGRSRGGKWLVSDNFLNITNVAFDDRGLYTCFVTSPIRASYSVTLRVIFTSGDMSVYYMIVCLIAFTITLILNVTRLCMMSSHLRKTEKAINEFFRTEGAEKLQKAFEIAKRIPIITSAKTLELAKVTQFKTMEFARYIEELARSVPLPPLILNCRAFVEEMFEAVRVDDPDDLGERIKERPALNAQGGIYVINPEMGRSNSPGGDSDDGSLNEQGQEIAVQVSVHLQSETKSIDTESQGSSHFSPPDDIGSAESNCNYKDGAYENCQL
UniProt Q9GZU1, whole entry, looked up: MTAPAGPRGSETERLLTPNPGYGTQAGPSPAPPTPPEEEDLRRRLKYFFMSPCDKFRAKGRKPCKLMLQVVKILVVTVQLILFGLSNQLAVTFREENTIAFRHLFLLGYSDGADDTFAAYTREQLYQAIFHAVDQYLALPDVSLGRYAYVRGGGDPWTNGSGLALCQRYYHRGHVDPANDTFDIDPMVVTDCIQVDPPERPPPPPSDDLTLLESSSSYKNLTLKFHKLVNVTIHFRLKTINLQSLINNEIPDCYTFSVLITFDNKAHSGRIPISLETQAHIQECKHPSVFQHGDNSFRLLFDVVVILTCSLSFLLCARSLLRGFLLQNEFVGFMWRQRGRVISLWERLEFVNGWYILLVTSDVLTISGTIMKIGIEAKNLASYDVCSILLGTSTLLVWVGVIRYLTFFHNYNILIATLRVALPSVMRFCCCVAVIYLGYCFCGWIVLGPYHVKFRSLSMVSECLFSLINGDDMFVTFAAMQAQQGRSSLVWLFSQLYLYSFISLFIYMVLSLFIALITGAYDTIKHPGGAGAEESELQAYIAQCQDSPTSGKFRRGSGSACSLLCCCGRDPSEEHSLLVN
UniProt Q6P1Q9: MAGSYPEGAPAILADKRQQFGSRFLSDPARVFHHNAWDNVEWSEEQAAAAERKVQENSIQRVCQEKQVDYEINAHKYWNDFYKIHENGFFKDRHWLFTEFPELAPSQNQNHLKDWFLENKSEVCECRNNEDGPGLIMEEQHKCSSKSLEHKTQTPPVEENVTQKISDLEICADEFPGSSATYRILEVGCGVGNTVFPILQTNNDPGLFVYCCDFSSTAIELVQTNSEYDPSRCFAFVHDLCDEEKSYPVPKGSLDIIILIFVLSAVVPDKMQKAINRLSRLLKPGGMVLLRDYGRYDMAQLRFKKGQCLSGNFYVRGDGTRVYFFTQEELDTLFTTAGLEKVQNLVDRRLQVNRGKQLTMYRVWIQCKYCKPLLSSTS

Key:
Test in all cases: log2 fold change, soluble protein after heating vs DMSO (PISA); higher = thermal stabilisation; K562 cells, 10 uM, 30 min; active = over 0.2 and 3.5 SD of the protein, either way, in both replicates (recomputed)
erlotinib = compound: C#Cc1cccc(Nc2ncnc3cc(OCCOC)c(OCCOC)cc23)c1 [erlotinib]
Method in brief: (§1)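 K562 cells at 2×10^6 cells/mL were given 10 μM compound for 30 min. Aliquots then went through 3 min of heating across 48°C-58°C, were pooled, and were extracted in PBS with 0.5% NP-40 at 4°C, and the supernatant after 21,000xg for 90 min was quantified by TMTpro 16plex LC-MS/MS with channel sums equalised. Thermal stability relative to control samples, from duplicates, is given as log2 fold change.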

[1] = compound: C/C(=N\NC(=O)C1=CC(=CC=C1)S(=O)(=O)N2CCOCC2)/C3=C(C=CC(=C3)Cl)O
Method in brief: as §1

[2] = compound: C1=CC(=C(C=C1Cl)C2=NC3=NC=CN=C3C(=N2)NC4=CC=NC=C4)F
Method in brief: as §1

[3] = compound: C1=CC(=CC=C1C2=NC3=C(N2)C=C(C=C3)C(=O)N)OC4=CC=C(C=C4)Cl
Method in brief: as §1

[4] = compound: C1=CC2=C(C=CC(=C2)/C=C\3/C(=O)NC(=NCC4=CC=CS4)S3)N=C1
Method in brief: as §1

[5] = compound: C1=CC2=NC=CN=C2C=C1/C=C/3\C(=O)NC(=O)S3
Method in brief: as §1

[6] = compound: C1=CC=C(C=C1)C2=NC(=C(N2)C3=CC=NC=C3)C4=CC(=C(C=C4)Cl)O
Method in brief: as §1

[7] = compound: C1=CC=C2C(=C1)C3=NNC4=CC=CC(=C43)C2=O
Method in brief: as §1

[8] = compound: C1CCN(C1)C(=O)NC2=CC=CC(=C2)NC3=NC=C(C(=N3)NCCC4=CN=CN4)Br
Method in brief: as §1

[9] = compound: C1CN(CCC1(CC2=CC=C(C=C2)Cl)N)C3=NC=NC4=C3C=CN4
Method in brief: as §1

Measured: log2 fold change

MCAM (UniProt P43121)
inactive: erlotinib 0.022 | [1] -0.033 | [2] 0.008 | [3] 0.002 | [4] 0.014 | [5] 0.017 | [6] -0.061 | [7] -0.042 | [8] -0.031 | [9] 0.076

MERTK (UniProt Q12866)
inactive: erlotinib 0.113 | [1] 0.019 | [2] 0.035 | [3] -0.031 | [4] -0.08 | [5] 0.041 | [7] 0.092 | [8] 0.011 | [9] 0.035

MELK (UniProt Q14680)
inactive: erlotinib 0.067 | [1] -0.067 | [2] 0.018 | [3] 0.027 | [4] 0.033 | [5] 0.009 | [7] 0.031 | [8] -0.027 | [9] -0.086

MCM2 (UniProt P49736)
inactive: erlotinib -0.026 | [1] 0.052 | [2] 0.064 | [3] 0.009 | [4] 0.021 | [5] 0.024 | [6] 0.007 | [7] 0.026 | [8] -0.025 | [9] -0.007

MBLAC1 (UniProt A4D2B0)
inactive: erlotinib 0.074 | [1] -0.042 | [3] 0.026 | [4] 0.036 | [5] 0.019 | [6] 0.002 | [7] -0.024

MECR (UniProt Q9BV79)
inactive: erlotinib 0.004 | [1] 0.059 | [2] 0.123 | [3] -0.02 | [4] -0.026 | [5] -0.065 | [6] 0.028 | [7] -0.024 | [8] 0.006 | [9] -0.004

MED25 isoform 3 (UniProt Q71SY5)
inactive: erlotinib -0.038 | [1] 0.026 | [3] 0.005 | [4] 0.048 | [5] -0.031 | [6] 0.062 | [7] 0.057 | [8] 0.057 | [9] 0.07

MAST4 (UniProt O15021)
inactive: erlotinib -0.016 | [1] 0.101 | [2] 0.082 | [3] 0.054 | [4] 0.032 | [5] 0.048 | [6] -0.086 | [7] -0.02 | [8] -0.007 | [9] -0.094

MCUR1 (UniProt Q96AQ8)
inactive: erlotinib -0.012 | [1] -0.03 | [2] 0.055 | [3] 0.003 | [4] 0.053 | [5] -0.006 | [6] 0.102 | [7] 0.005 | [8] -0.023 | [9] 0.063

MED4 (UniProt Q9NPJ6)
inactive: erlotinib 0.076 | [1] -0.067 | [2] 0.017 | [3] -0.01 | [4] 0.031 | [5] 0.007 | [6] -0.053 | [7] -0.066 | [8] -0.031 | [9] -0.009

MFSD8 (UniProt Q8NHS3)
inactive: erlotinib 0.047 | [1] -0.018 | [2] -0.012 | [3] -0.089 | [4] 0.009 | [5] 0.166 | [6] 0 | [7] -0.054 | [8] -0.033 | [9] -0.091

METTL25 (UniProt Q8N6Q8)
inactive: erlotinib 0.128 | [1] -0.088 | [2] -0.134 | [3] -0.065 | [4] -0.117 | [5] 0.153 | [7] -0.011

MFSD6 (UniProt Q6ZSS7)
inactive: erlotinib -0.021 | [1] -0.033 | [2] 0.03 | [3] -0.004 | [4] 0.004 | [5] 0.094 | [7] -0.106

METTL7A (UniProt Q9H8H3)
inactive: erlotinib 0.01 | [1] 0.041 | [2] 0.054 | [3] -0.003 | [4] 0.036 | [5] -0.029 | [6] 0.045 | [7] -0.009 | [8] -0.039 | [9] 0.047

MCFD2 (UniProt Q8NI22)
inactive: erlotinib -0.113 | [1] -0.046 | [2] 0.08 | [3] 0.03 | [4] 0.035 | [5] 0.212 | [6] 0.07 | [7] 0.091 | [8] -0.029 | [9] -0.234

Looked up one by one from the entries so far (three):
MED4 (UniProt Q9NPJ6)
inactive: erlotinib 0.076 | [1] -0.067 | [2] 0.017 | [3] -0.01 | [4] 0.031 | [5] 0.007 | [6] -0.053 | [7] -0.066 | [8] -0.031 | [9] -0.009

MCFD2 (UniProt Q8NI22)
inactive: erlotinib -0.113 | [1] -0.046 | [2] 0.08 | [3] 0.03 | [4] 0.035 | [5] 0.212 | [6] 0.07 | [7] 0.091 | [8] -0.029 | [9] -0.234

METTL25 (UniProt Q8N6Q8)
inactive: erlotinib 0.128 | [1] -0.088 | [2] -0.134 | [3] -0.065 | [4] -0.117 | [5] 0.153 | [7] -0.011

Additional results.

MBIP (UniProt Q9NS73)
inactive: erlotinib 0.033 | [1] -0.115 | [3] -0.298 | [4] -0.02 | [5] -0.01 | [6] -0.029 | [7] -0.052 | [8] -0.071 | [9] -0.103

METTL6 (UniProt Q8TCB7)
inactive: erlotinib 0.02 | [1] -0.038 | [2] -0.413 | [3] -0.034 | [4] 0.088 | [5] 0.131 | [7] -0.09 | [8] 0.102 | [9] 0.053

MATR3 (UniProt P43243)
inactive: erlotinib 0.017 | [1] -0.013 | [2] -0.088 | [3] 0.164 | [4] -0.26 | [5] 0.195 | [6] -0.03 | [7] 0.11 | [8] 0.211 | [9] -0.152

MEPCE (UniProt Q7L2J0)
inactive: erlotinib 0.063 | [1] 0.064 | [2] -0.022 | [3] -0.002 | [4] 0.039 | [5] -0.01 | [6] 0.103 | [7] 0.024 | [8] -0.049 | [9] -0.047

MED16 (UniProt Q9Y2X0)
inactive: erlotinib -0.019 | [1] -0.085 | [2] 0.065 | [3] -0.038 | [4] 0.038 | [5] 0.051 | [6] -0.067 | [7] -0.155 | [8] 0.034 | [9] -0.046

MED10 (UniProt Q9BTT4)
inactive: erlotinib -0.103 | [1] 0 | [2] 0.026 | [3] 0.061 | [4] 0.081 | [6] -0.007 | [7] 0.05 | [8] -0.148 | [9] 0.008

METTL7B (UniProt Q6UX53)
inactive: erlotinib -0.069 | [1] 0.161 | [2] -0.058 | [3] -0.151 | [4] -0.042 | [7] 0.088

MCU (UniProt Q8NE86)
inactive: erlotinib 0.007 | [1] 0.042 | [2] 0.083 | [3] 0.008 | [4] 0.027 | [5] 0.013 | [6] 0.001 | [7] 0.014 | [8] 0.004 | [9] 0.013

MGAT1 (UniProt P26572)
inactive: erlotinib -0.092 | [1] 0.173 | [2] -0.033 | [3] 0.021 | [4] 0.029 | [5] 0.021 | [6] -0.039 | [7] 0.007 | [8] -0.031 | [9] 0.012

MED28 (UniProt Q9H204)
inactive: erlotinib -0.058 | [1] 0.026 | [3] 0.062 | [4] 0.147 | [5] -0.025 | [6] 0.032 | [7] -0.018 | [8] -0.244 | [9] 0.028

MIB1 (UniProt Q86YT6)
inactive: erlotinib -0.03 | [1] 0.104 | [2] -0.049 | [3] -0.022 | [4] -0.073 | [5] 0.004 | [6] 0.056 | [7] 0.03 | [8] -0.074 | [9] -0.012

MEF2C isoform 2 (UniProt Q06413)
inactive: [2] 0.085 | [8] -0.07 | [9] 0.096

MFSD12 isoform 3 (UniProt Q6NUT3)
inactive: erlotinib 0.062 | [1] -0.062 | [3] 0.077 | [4] -0.035 | [7] 0.024 | [8] -0.088 | [9] -0.099

MFAP3 (UniProt P55082)
inactive: [1] 0.202 | [2] -0.021 | [4] 0.029 | [5] -0.106 | [7] -0.142 | [8] -0.088 | [9] 0.064

MCOLN1 (UniProt Q9GZU1)
inactive: erlotinib -0.011 | [2] 0.225 | [3] 0.009 | [5] -0.014 | [6] 0.076

MBNL1 isoform 5 (UniProt Q9NR56)
inactive: [2] 0.033 | [5] -0.103 | [6] -0.001 | [8] -0.181 | [9] 0.191

METTL2B (UniProt Q6P1Q9)
inactive: [1] 0.133 | [2] -0.113 | [4] 0.022 | [6] 0.073 | [7] -0.065
